Measurements published in PubChem BioAssay AID540303 (National Center for Advancing Translational Sciences (NCATS), 2011).
In all, about 330,000 compounds went through this assay and about 1,000 (0.3%) were called active. This list was built around the results that the source calls inconclusive (neither active nor inactive); the mix of calls is not that of the screen. The call rests on the fitted dose curve; in most records, active means well fitted inhibition curve with a large enough effect; inconclusive means small, poorly fitted or top-dose-only effect; inactive means no such curve, though single readings can be large or run the other way; tested in mouse RAW 264.7 cells. A potency beside an inconclusive call is a rough fit, not a confirmed value.

assay: qHTS for Inhibitors of Cell Surface uPA Generation; conditions: cell surface uPA generation assay; series mostly up to 38.3 µM; activity change, negative = inhibition: at the top concentration; further: nearly all actives have a fitted effect of over 55% in size
In short: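 Validation set in qHTS format. RAW 264.7 cells were pre-plated overnight and then exposed to compounds (up to 38.3 uM final) for 24 h at 37 C in 5% CO2, followed by a luminescent ATP-Lite measurement.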
On the % scale 0 is the no-effect control and ±100 the full control effect; potency means the concentration at half of the fitted maximal effect.

**Q.** For O=C1c2ccccc2S(=O)(=O)c2cc(N3CCOCC3)ccc21, which Potency is on record?
**A.** active: 2.51 µM

**Q.** Which Potency does the source give for CCc1cccc(CC)c1NC(=S)NC(C)c1ccccc1 (stereo not drawn) here?
**A.** inconclusive: 11.2 µM [inhibitor, single point]

**Q.** Which Potency does the source give for c1csc(-c2ccc(N3CCOCC3)nn2)c1 here?
**A.** inconclusive: 1.41 µM [inhibitor, partial curve, poor fit]

**Q.** Which Potency does the source give for COc1cc(-c2noc(C)c2C#Cc2ccc(N)cc2)cc(OC)c1OC here?
**A.** inconclusive: 0.0316 µM [inhibitor, full curve, poor fit]

**Q.** For CCCCOc1ccc(C(=O)NCCc2ccccc2)cc1, which Potency is on record?
**A.** inconclusive: 11.2 µM [inhibitor, single point]

**Q.** For CN(CC(=O)Nc1ccccc1N1CCOCC1)S(=O)(=O)c1ccc(F)cc1, which “activity change, negative = inhibition” value is on record?
**A.** inactive: 0.337%

**Q.** For COc1cccc(CNC(=O)c2cccc(S(=O)(=O)N3CCN(Cc4ccccc4)CC3)c2)c1, which “activity change, negative = inhibition” value is on record?
**A.** inactive: -0.446%

**Q.** For COc1cc(C2C(=O)c3ccccc3C2=O)ccc1O, which Potency is on record?
**A.** inconclusive: 12.6 µM [inhibitor, single point]

**Q.** Which Potency does the source give for CCc1cc(-c2[nH]ncc2-c2ccc3c(c2)OCO3)c(O)cc1O here?
**A.** inconclusive: 11.2 µM [inhibitor, single point]

**Q.** For O=C(Nc1cc(=O)[nH]c(=O)[nH]1)c1cc(Cl)ccc1Cl, which Potency is on record?
**A.** active: 3.55 µM

**Q.** For C#CCOCCOCCOCCNc1nc(N2CCN(C(=O)CCCCCCCCCCNC(=O)[C@H]([C@@H](C)CC)n3cc(CCCCCN)nn3)CC2)nc(N2CCN(C(=O)CCCCCCCCCCNC(=O)[C@H](CO)n3cc(CCCCCN)nn3)CC2)n1, which Potency is on record?
**A.** inconclusive: 11.2 µM [inhibitor, single point]

**Q.** With CCOc1ccccc1N(C)C(=O)c1cc2c(=O)n(CC)c3ccccc3c2s1 as the molecule, how does the Potency read?
**A.** inconclusive: 28.2 µM [inhibitor, single point]

**Q.** With C#CCCOC(=O)N1C2=NC(C(=O)OC)=C(C(=O)OC)[C@@H]3N(Cc4ccccc4)c4ccccc4[C@]23C[C@H]1C(=O)OC as the molecule, how does the Potency read?
**A.** inconclusive: 10 µM [inhibitor, single point]

**Q.** Which “activity change, negative = inhibition” value does the source give for Cc1oc(-c2ccccc2)cc1C(=O)Nc1cccc2ccccc12 here?
**A.** inactive: -5.61%

**Q.** For COc1cc(C(CCN2CCOCC2)c2c(OC)cc(OC)c3c(-c4ccccc4)cc(=O)oc23)cc(OC)c1OC (stereo not drawn), which Potency is on record?
**A.** inconclusive: 12.6 µM [inhibitor, single point]

**Q.** Which “activity change, negative = inhibition” value does the source give for Cc1noc(C)c1C(=O)Nc1nc(-c2ccc([N+](=O)[O-])cc2)cs1 here?
**A.** inactive: -18.8%

**Q.** With CC1(C)Cc2c(sc(NC(=O)Nc3ccccc3)c2C(N)=O)CO1 as the molecule, how does the Potency read?
**A.** inconclusive: 0.0631 µM [inhibitor, full curve, poor fit]

**Q.** Which Potency does the source give for COc1cc(CNCCCN2CCOCC2)cc(Br)c1OCc1ccc(Cl)cc1 here?
**A.** inconclusive: 12.6 µM [inhibitor, single point]

**Q.** With CCOc1ccc(-c2nnc3ccc(SCC(=O)N4CCN(c5ccccc5)CC4)nn23)cc1 as the molecule, how does the Potency read?
**A.** inconclusive: 0.355 µM [inhibitor, full curve, poor fit]

**Q.** For O=[N+]([O-])c1cc(-c2nnc(-c3ccccc3)o2)ccc1Oc1ccc(Cl)cc1, which “activity change, negative = inhibition” value is on record?
**A.** inactive: 1.71%

**Q.** Which “activity change, negative = inhibition” value does the source give for COc1ccc(C(=O)OCC(=O)NC2CC2)cc1OC here?
**A.** inactive: 7.1%

**Q.** With COC(=O)C1=C(C)N(Cc2ccccc2)C(=NCCc2cccnc2)N[C@H]1c1ccc(Br)cc1 as the molecule, how does the Potency read?
**A.** inconclusive: 28.2 µM [inhibitor, single point]

**Q.** For Cc1cc([N+](=O)[O-])nn1CC(=O)c1ccccc1, which Potency is on record?
**A.** inconclusive: 6.31 µM [inhibitor, full curve, poor fit]

**Q.** For CC(C)(C)c1ccc(-c2nc(N)nc(N)n2)cc1, which Potency is on record?
**A.** inconclusive: 10 µM [inhibitor, partial curve, poor fit]

**Q.** With S=c1[nH]nc(-c2ccncc2)n1/N=C/C(Cl)=C\c1ccccc1 as the molecule, how does the Potency read?
**A.** inconclusive: 10 µM [inhibitor, partial curve, poor fit]

**Q.** Which Potency does the source give for CCN(C(=O)COC(=O)c1ncc(Cl)c(Cl)c1Cl)c1c(N)n(Cc2ccccc2)c(=O)[nH]c1=O here?
**A.** inconclusive: 6.31 µM [inhibitor, partial curve]

**Q.** With Clc1ccc(CN2CCN(c3ncccn3)CC2)c(Cl)c1 as the molecule, how does the Potency read?
**A.** inconclusive: 5.01 µM [inhibitor, single point]

**Q.** For O=C(NC1CCCC1)c1ccc(Cl)c(S(=O)(=O)N2CCOCC2)c1, which Potency is on record?
**A.** inconclusive: 1.26 µM [inhibitor, full curve, poor fit]

**Q.** For CCNC(=S)N1CCN(c2nc(-c3cccc(OC)c3)cs2)CC1, which “activity change, negative = inhibition” value is on record?
**A.** inactive: 7.96%

**Q.** Which “activity change, negative = inhibition” value does the source give for O=C(CCc1ccccc1)Nc1nnc(-c2ccc3c(c2)CCCC3)o1 here?
**A.** inactive: -7.28%

**Q.** With COc1ccc2c(-c3ccc(S(N)(=O)=O)cc3)c(-c3ccc(S(C)(=O)=O)cc3)sc2c1 as the molecule, how does the Potency read?
**A.** inconclusive: 10 µM [inhibitor, single point]

**Q.** Which Potency does the source give for CN(C(=O)CSc1nc(-c2ccc(C(C)(C)C)cc2)c(C#N)c(=O)[nH]1)C1CCCCC1 here?
**A.** inconclusive: 3.55 µM [inhibitor, full curve, poor fit]

**Q.** Which Potency does the source give for CCOc1ccccc1CNC(=O)CCn1ccc2cc(S(=O)(=O)N3CCCCC3)ccc21 here?
**A.** inconclusive: 11.2 µM [inhibitor, partial curve, poor fit]

**Q.** Which Potency does the source give for O=C(N/N=C/c1cc(Cl)cc([N+](=O)[O-])c1O)c1ccc2c(c1)OCO2 here?
**A.** inconclusive: 6.31 µM [inhibitor, partial curve, poor fit]

**Q.** For CC(C)Cn1c(=O)[nH]c(=O)c2c(C(F)(F)F)cc(-c3ccccc3)nc21, which Potency is on record?
**A.** inconclusive: 3.55 µM [inhibitor, partial curve]

**Q.** With CN(C(=O)COc1ccc([N+](=O)[O-])cc1)C1CCS(=O)(=O)C1 (stereo not drawn) as the molecule, how does the “activity change, negative = inhibition” value read?
**A.** inactive: 2.13%

**Q.** With OCC1CCCN(C2CCN(Cc3nc(Cc4cccc(C(F)(F)F)c4)no3)CC2)C1 (stereo not drawn) as the molecule, how does the “activity change, negative = inhibition” value read?
**A.** inactive: 2.5%

**Q.** With CCOc1ccccc1NC(=S)N1CCN(c2ccc(O)cc2)CC1 as the molecule, how does the Potency read?
**A.** inconclusive: 7.08 µM [inhibitor, partial curve, poor fit]

**Q.** With C#CCCOC(=O)N1C2=NC(C(=O)OC)=C(C(=O)OC)[C@@H]3N(C)c4ccccc4[C@]23C[C@H]1C(=O)OC as the molecule, how does the Potency read?
**A.** inconclusive: 1.58 µM [inhibitor, partial curve]

**Q.** With O=C(O)c1ccc(COc2ccccc2/C=C2/NC(=O)N(c3cccc(Cl)c3)C2=O)cc1 as the molecule, how does the “activity change, negative = inhibition” value read?
**A.** inactive: 4.74%

**Q.** With CC1CC(C)(C)CC2(C1)NC(=O)N(CC(=O)N1CCN(S(=O)(=O)c3cccc(Cl)c3Cl)CC1)C2=O (stereo not drawn) as the molecule, how does the Potency read?
**A.** inconclusive: 1.58 µM [inhibitor, partial curve, poor fit]

**Q.** Which Potency does the source give for CCOc1ccc(CNC(=O)CCc2cn(Cc3ccccc3)c3ccccc23)cc1 here?
**A.** inconclusive: 3.55 µM [inhibitor, partial curve, poor fit]

**Q.** With CCC1CCCCN1CCCNC(=O)c1ccc(/C=C2/Sc3ccccc3NC2=O)cc1 (stereo not drawn) as the molecule, how does the Potency read?
**A.** inconclusive: 2.82 µM [inhibitor, single point]

**Q.** With CC(=O)Oc1ccc(-c2csc(Nc3ccc(Cl)cn3)n2)cc1 as the molecule, how does the Potency read?
**A.** inconclusive: 7.08 µM [inhibitor, partial curve, poor fit]

**Q.** With O=C(Nc1cccc(NC(=O)c2nccc3ccccc23)c1)c1ccco1 as the molecule, how does the Potency read?
**A.** inconclusive: 3.98 µM [inhibitor, partial curve]

**Q.** For C/C(=N\NC(=O)c1nn(C)cc1Br)c1cccc(NC(=O)C(C)(C)C)c1, which “activity change, negative = inhibition” value is on record?
**A.** inactive: -2.51%

**Q.** Which “activity change, negative = inhibition” value does the source give for COCCCNC(=O)c1cc(C)nn1-c1ccccc1 here?
**A.** inactive: -6.61%

**Q.** With CC1CCC2(CC1)NC(=O)N(CC(=O)Nc1cccc(S(=O)(=O)N3CCCCC3)c1)C2=O (stereo not drawn) as the molecule, how does the Potency read?
**A.** inconclusive: 7.08 µM [inhibitor, partial curve, poor fit]

**Q.** Which Potency does the source give for NC(=O)CCCn1c(C(=O)c2cc(Cl)c(N)c(Cl)c2)c2ccc([N+](=O)[O-])cc2[n+]1[O-] here?
**A.** active: 3.16 µM

**Q.** Which Potency does the source give for O=S(=O)(Nc1cccc2cccnc12)c1ccc(S(=O)(=O)N2CCCC2)cc1 here?
**A.** inconclusive: 28.2 µM [inhibitor, single point]

**Q.** Which “activity change, negative = inhibition” value does the source give for O=C(c1ccccc1)N1CCN(c2ncnc3c2cnn3-c2ccccc2)CC1 here?
**A.** inactive: 0.687%

**Q.** For COc1cc2c(cc1NC(=O)COC(=O)[C@@H](NS(=O)(=O)c1cccc(Cl)c1)C(C)C)oc1ccccc12, which “activity change, negative = inhibition” value is on record?
**A.** inactive: 10.8%

**Q.** With CCOC(=O)[C@H]1[C@H]2COc3ccc(Br)cc3[C@@H]2N2C(=O)c3cc(F)c(F)cc3NC(=O)[C@@]12C as the molecule, how does the Potency read?
**A.** inconclusive: 12.6 µM [inhibitor, single point]

**Q.** Which Potency does the source give for CN(C)S(=O)(=O)c1ccc(Cl)c(C(=O)NNC(=O)c2ccc3c(c2)OCO3)c1 here?
**A.** inconclusive: 0.01 µM [inhibitor, full curve, poor fit]

**Q.** With Cc1cccc(NC(=O)C2(c3ccccc3)CC2(Cl)Cl)c1 (stereo not drawn) as the molecule, how does the “activity change, negative = inhibition” value read?
**A.** inactive: 0.95%

**Q.** Which Potency does the source give for O=C(Nc1ccc(Cl)c(S(=O)(=O)N2CCOCC2)c1)C1CCCC1 here?
**A.** inconclusive: 7.94 µM [inhibitor, partial curve, poor fit]

**Q.** For Cc1ccc(N(CC(=O)NC2CCCC2)C(=O)CNC(=O)c2cccs2)c(C)c1, which “activity change, negative = inhibition” value is on record?
**A.** inactive: -2.37%

**Q.** With COc1ccc(S(=O)(=O)N2CCC(C(=O)O)(c3ccccc3)CC2)cc1 as the molecule, how does the “activity change, negative = inhibition” value read?
**A.** inactive: 3.01%

**Q.** For O=C(N/N=C/c1ccc(O)cc1O)c1ccncc1, which Potency is on record?
**A.** inconclusive: 12.6 µM [inhibitor, single point]

**Q.** With COc1cc2cc(C(c3nnnn3C(C)(C)C)N3CCc4ccccc4C3)c(=O)[nH]c2cc1OC (stereo not drawn) as the molecule, how does the Potency read?
**A.** inconclusive: 7.94 µM [inhibitor, partial curve, poor fit]

**Q.** With Cc1ccc(OCC(=O)Nc2ccc3c(c2)C(=O)N(CCC(=O)O)C3=O)cc1 as the molecule, how does the Potency read?
**A.** inconclusive: 10 µM [inhibitor, single point]

**Q.** With S=C(Nc1ccccc1)c1nc2ccccc2s1 as the molecule, how does the Potency read?
**A.** inconclusive: 7.94 µM [inhibitor, single point]

**Q.** Which Potency does the source give for O=C(O)COc1ccccc1/C=N/NC(=O)c1ccc2c(c1)OCCO2 here?
**A.** inconclusive: 1 µM [inhibitor, partial curve, poor fit]
